Drug screen on melanoma cell lines: cell count

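The test systems are human melanoma cell lines, treated with two drugs together for 72 h and then stained and imaged. Values are the number of DAPI-stained nuclei as a percentage of the DMSO control: 100 is no effect, lower means fewer cells. Every drug was used at one fixed concentration, the higher of two screened. These are primary screening values without error estimates.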 An unselected part of the screen is shown. A dash means that no value is listed here.

Drugs:
ZM336372, 10000 nM: Cc1ccc(NC(=O)c2cccc(N(C)C)c2)cc1NC(=O)c1ccc(O)cc1
GSK0660, 5000 nM: COC(=O)c1sccc1S(=O)(=O)Nc1ccc(Nc2ccccc2)cc1OC
GW2580, 5000 nM: COc1ccc(COc2ccc(Cc3cnc(N)nc3N)cc2OC)cc1
perifosine, 2000 nM: CCCCCCCCCCCCCCCCCCOP(=O)([O-])OC1CC[N+](C)(C)CC1
KU-0063794, 100 nM: COc1ccc(-c2ccc3c(N4CCOCC4)nc(N4C[C@@H](C)O[C@@H](C)C4)nc3n2)cc1CO
NVP-TAE684, 400 nM: COc1cc(N2CCC(N3CCN(C)CC3)CC2)ccc1Nc1ncc(Cl)c(Nc2ccccc2S(=O)(=O)C(C)C)n1
RKI-983, 2000 nM: C[C@@H](N)c1ccc(C(=O)Nc2ccnc3[nH]ccc23)cc1
STA-4783, 30 nM: CN(NC(=O)CC(=O)NN(C)C(=S)c1ccccc1)C(=S)c1ccccc1
U73122, 2000 nM: COc1ccc2c(c1)CCC1C2CCC2(C)C(NCCCCCCN3C(=O)C=CC3=O)CCC12 (stereo not shown)
GW441756, 2000 nM: Cn1cc(/C=C2\C(=O)Nc3cccnc32)c2ccccc21

Combination,COLO 829,G-361,A375,COLO 792,501mel,C32,WM451Lu,IPC-298,COLO 800,A2058
GSK0660 and U73122,99.4,94.2,89.8,94.7,130,51.1,-,105,59.6,54.7
KU-0063794 and GW2580,69.5,86.7,97.0,82.1,91.3,96.4,-,74.9,55.7,98.6
U73122 and RKI-983,90.7,-,76.2,66.9,90.4,44.3,88.4,-,61.1,42.3
GSK0660 and perifosine,87.6,-,93.6,109,94.8,98.4,82.0,-,85.4,96.5
NVP-TAE684 and KU-0063794,73.3,63.9,79.1,61.4,67.0,67.8,-,62.8,62.5,39.1
U73122 and GW2580,112,80.2,84.2,97.4,86.7,74.2,-,109,90.9,76.4
GSK0660 and NVP-TAE684,85.6,79.4,76.9,71.3,95.0,89.4,-,85.0,40.5,45.6
GSK0660 and RKI-983,101,-,93.8,92.4,95.6,87.9,97.0,-,59.6,71.1
GW2580 and NVP-TAE684,89.0,65.2,86.6,61.8,46.9,88.4,-,79.9,63.1,61.5
U73122 and NVP-TAE684,119,72.0,54.9,79.2,-,44.7,-,89.0,37.3,32.2
RKI-983 and ZM336372,87.7,-,99.0,91.7,-,86.4,-,-,93.7,78.6
NVP-TAE684 and GW441756,111,92.8,84.1,90.8,81.8,94.4,-,97.8,36.9,72.8
KU-0063794 and GW441756,92.3,90.4,128,91.0,-,88.8,-,62.8,87.9,108
STA-4783 and perifosine,56.7,-,88.9,29.8,-,20.5,-,-,21.7,19.9
GW2580 and GSK0660,111,93.0,81.1,106,109,119,-,91.1,98.0,96.3
perifosine and U73122,74.9,-,75.1,124,60.1,83.8,115,-,56.6,83.6
GW441756 and RKI-983,106,-,114,77.9,101,77.9,92.0,-,80.3,68.2
RKI-983 and KU-0063794,68.6,-,117,78.7,112,82.9,84.3,-,136,56.9
GW441756 and GW2580,114,87.7,137,104,78.1,92.0,-,81.9,64.5,110
U73122 and GW441756,107,87.8,104,110,109,86.5,-,93.0,47.9,78.4
perifosine and NVP-TAE684,119,-,79.9,85.8,73.5,96.1,92.4,-,78.1,61.0
perifosine and KU-0063794,87.7,-,86.3,88.7,68.0,102,83.5,-,91.8,73.7
GSK0660 and GW441756,95.1,87.8,143,92.2,83.7,92.3,-,77.9,73.2,109
RKI-983 and NVP-TAE684,103,-,99.3,56.3,87.2,60.1,78.8,-,73.3,39.5
GW2580 and RKI-983,82.7,-,111,61.8,99.5,62.6,75.3,-,65.6,61.6
KU-0063794 and GSK0660,107,74.0,97.4,76.4,-,107,-,71.4,102,95.7
ZM336372 and perifosine,90.9,-,91.8,98.0,-,88.4,84.5,-,87.9,69.1
perifosine and GW2580,114,-,82.4,109,62.4,97.0,108,-,178,99.1

Values as published with doi:10.1371/journal.pone.0140310, rounded.